Results on 110 sequences are retold here after the supplement of paper PMC3334620.

In all, about 33,000 sequences were measured (“E-score (-0.5 to 0.5)”: median about -0.0059, highest 2% from about 0.26 on). Some of the results follow.

The target in this test is T1, Cin5 (UniProt P40917).
T1 sequence: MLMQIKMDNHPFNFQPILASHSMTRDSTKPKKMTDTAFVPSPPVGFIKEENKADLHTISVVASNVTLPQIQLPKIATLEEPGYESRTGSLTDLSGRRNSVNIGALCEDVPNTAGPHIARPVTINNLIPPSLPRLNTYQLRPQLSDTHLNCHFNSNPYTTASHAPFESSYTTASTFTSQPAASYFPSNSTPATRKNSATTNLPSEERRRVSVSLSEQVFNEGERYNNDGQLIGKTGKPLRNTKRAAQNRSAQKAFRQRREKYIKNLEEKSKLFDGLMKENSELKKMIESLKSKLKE
The test is described as follows: PBM E-score (8-mer binding enrichment) (E-score (-0.5 to 0.5)); higher = stronger / more preferred TF binding. To be noted: protein concentration: 100 nM; construct: GST-full length. The method, then:
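Universal 'all 10-mer' protein binding microarrays (Agilent AMADID 015681) probed with GST-tagged S. cerevisiae TFs (full-length or DBD) made by in vitro transcription/translation (PURExpress), about 100-200 nM. Bound TF was detected with fluorescent anti-GST. Each ungapped 8-mer (which stands for itself and its reverse complement) is scored by the PBM enrichment score (E-score), a modified Wilcoxon-Mann-Whitney statistic from -0.5 to +0.5, computed with the Universal PBM Analysis Suite. Scale: above 0.35 generally sequence-specific binding.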
Take GCTCCAGC: the “PBM E-score” value was -0.0872.
With AGTCGTAA, the “PBM E-score” value came to 0.121.
Next, GCCACGGC: -0.212; GGGAGCAA: -0.22; GAAGCTCC: -0.135.
The result for CCCAAGCA reads 0.0351; that for CATACAGC, -0.136.
Next, GCGCGTGA: -0.0444; AAAACCAC: -0.0216; GGGTACAC: -0.194.
Turning to CTCCATAC, the “PBM E-score” value was 0.0259.
Turning to ACACTAGG, the “PBM E-score” value was found to be 0.162.
Next, GACGCTTA: -0.059.
Turning to GGCACGGA, the “PBM E-score” value was -0.0181.
For the sequence CCTCTCTA, the “PBM E-score” value is -0.287.
For the sequence CTCTTGTA, the “PBM E-score” value was -0.0977.
For the sequence GGATAATA, the “PBM E-score” value was found to be 0.169.
Consider AAGGTGAC, for which the “PBM E-score” value was -0.184.
The result for AAAGATTC reads -0.00486; that for CTAACATA, 0.204.
Take GTCGCAAC: the “PBM E-score” value was found to be 0.0922.
For the sequence CACAAAGA, the “PBM E-score” value was 0.0063.
Next, GGCTTCGA: -0.027; ACGTAGAT: 0.205.
Next, GATTCCAC: 0.0898; AGGACCAC: -0.137.
Regarding GGCGGGAC, the “PBM E-score” value is -0.0609.
The result for ACCTCGTC reads 0.0333; that for CGCGCCAG, -0.179.
Consider GTCCTTTA, for which the “PBM E-score” value was -0.0791.
In the case of GTGCCTCA, the “PBM E-score” value is -0.274.
For GGTGGAAA, the “PBM E-score” value is -0.0181.
The result for GCTAAAGA reads 0.102; that for TCTGATAA, 0.158; that for TATCCAAA, 0.134.
As for GGTAAAAA, the “PBM E-score” value came out at 0.083.
Regarding ACTGTCGC, the “PBM E-score” value came to 0.0215.
For AAGGACAC, the “PBM E-score” value was -0.0294.
In the case of CACGCGGC, the “PBM E-score” value was -0.0526.
The result for CAATACTC reads 0.227; that for ATGAGCTC, -0.0424.
CGATGGGC: the “PBM E-score” value was determined as 0.0315.
For CTAGAAAA, the “PBM E-score” value is 0.0407.
With CTCTGTTC, the “PBM E-score” value was found to be 0.0727.
Turning to AAAATTGG, the “PBM E-score” value was found to be 0.122.
On to GGGCTCGA, for which the “PBM E-score” value was -0.151.
With CCGTTGTC, the “PBM E-score” value turned out to be 0.131.
On to ACGGCTAT, for which the “PBM E-score” value is -0.19.
As to CACGGCGC, the “PBM E-score” value is -0.00846.
With GGTGGTTA, the “PBM E-score” value is 0.136.
Regarding GAATTAAC, the “PBM E-score” value came out at 0.0843.
With CAGTAGAC, the “PBM E-score” value was -0.0308.
Turning to CTGGTTGC, the “PBM E-score” value turned out to be 0.112.
For the sequence AACACAGA, the “PBM E-score” value came out at 0.123.
In the case of CCCCCGAA, the “PBM E-score” value is -0.374.
With AGCCACTG, the “PBM E-score” value stood at 0.0225.
Regarding CATCCTAC, the “PBM E-score” value was -0.0387.
For the sequence GAATCTAA, the “PBM E-score” value was 0.0968.
Consider GATAGGGC, for which the “PBM E-score” value worked out at 0.00421.
For GCGATTTA, the “PBM E-score” value was 0.109.
In the case of AGCTGGCC, the “PBM E-score” value is -0.0303.
Next, AAAGGAAT: 0.102; GAGCCTCA: -0.163; GGTTGCAC: -0.0326.
In the case of GCCGGAAA, the “PBM E-score” value is 0.0144.
Regarding TAGTCACA, the “PBM E-score” value was 0.0468.
In the case of CCCGTATC, the “PBM E-score” value was -0.0502.
As to CTAAGGAG, the “PBM E-score” value was -0.132.
Next, AATCACTA: 0.122; ATTGGGGA: 0.00734.
With CATGAGCC, the “PBM E-score” value is -0.21.
The result for CGCAGTAG reads -0.0567; that for AGCCTTCA, -0.143; that for CTAGTGAC, -0.0966.
For the sequence TGCAGCCA, the “PBM E-score” value came out at 0.0515.
Next, CTCGCCCA: -0.0749; TAAAGCAA: 0.169; CATTGCAA: -0.0643.
With AATGCCGT, the “PBM E-score” value came to 0.229.
Take AGGACGAA: the “PBM E-score” value was 0.0753.
Turning to AGCCAGCT, the “PBM E-score” value is -0.266.
With TATCACCA, the “PBM E-score” value amounted to 0.147.
Take AACACCTC: the “PBM E-score” value is -0.129.
CGCATCGA: the “PBM E-score” value turned out to be 0.182.
In the case of CTCGATGA, the “PBM E-score” value turned out to be 0.185.
For GGTACAAA, the “PBM E-score” value was -0.008.
Turning to AATTGCCA, the “PBM E-score” value worked out at 0.0197.
ATTGTCCG: the “PBM E-score” value came to 0.153.
Regarding CCATAGCG, the “PBM E-score” value was -0.0236.
Consider CCGATATC, for which the “PBM E-score” value was 0.013.
As for AAGGGCTG, the “PBM E-score” value was -0.324.
As to GAAGATGC, the “PBM E-score” value was determined as 0.00103.
Take ACGCGGTG: the “PBM E-score” value was -0.174.
In the case of AATACAAA, the “PBM E-score” value amounted to 0.342.
In the case of CAGACAGG, the “PBM E-score” value was -0.216.
As to GGCGATCA, the “PBM E-score” value is -0.173.
On to CCTATACC, for which the “PBM E-score” value is -0.0604.
For AGATTGGA, the “PBM E-score” value was found to be 0.0533.
Take CGCCAAAC: the “PBM E-score” value was -0.072.
As to GGAGGGAA, the “PBM E-score” value is -0.27.
The result for GAACCTAA reads 0.123.
CGAAACAC: the “PBM E-score” value was determined as 0.0883.
Turning to GACTTCCC, the “PBM E-score” value was -0.2.
On to CAGGCCTC, for which the “PBM E-score” value was -0.287.
As for GCTCGACA, the “PBM E-score” value was -0.211.
CACGATTC: the “PBM E-score” value was determined as 0.0668.
With AACAAGGC, the “PBM E-score” value was -0.0877.
With CGCATAAC, the “PBM E-score” value is 0.195.
For the sequence ATTACGTC, the “PBM E-score” value was found to be 0.371.
In the case of TATTCCGA, the “PBM E-score” value was 0.158.
